We go through 36 compounds from PubChem BioAssay AID2685 (National Center for Advancing Translational Sciences (NCATS), 2010).

This assay can be described thus: qHTS Assay for Lipid Storage Modulators in Drosophila S3 Cells.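 On cell number change: cells counted by Cell Tracker Red CMTPX staining in the red channel.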 The following applies: BODIPY lipid droplet fluorescence, 18-24 h; for cell number change: measured here: cell count max response, cells fed with added oleic acid. The method in brief:
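Laser-scanning cytometry quantifies lipid droplet accumulation (500–530 nm total intensity; droplet/cell object ratio) in oleic acid-fed (400 uM added) Drosophila S3 cells treated with a concentration series. 20 uM Triacsin C defined 100% inhibition.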
A general note: Quantitative high-throughput screening tests each substance at several concentrations.

Where [1] appears, read: measured here: lipid fluorescence (Fed channel) AC50, cells fed with added oleic acid.
The mark [2] stands for this setting: measured here: cell number channel AC50, cells fed with added oleic acid.

The other results are listed elsewhere or left out. Shown are side measurements of this screen, not its main read-out; they come without a call. Compounds called inactive in the main read-out are mostly missing here. Potencies come from curve fits of mixed quality, noted in brackets.

By AC50 is commonly meant the midpoint of the concentration-response curve, whichever way the signal moves. Low values mean activity at low concentration, high ones activity only at high concentration.

On to `CCOc1ccc(-n2c(O)c(C=NCCN(CC)CC)c(=O)[nH]c2=O)cc1`, for which the cell number change is -190%. Also, under setting [1], the AC50 is 16.4 µM [falling, partial curve].

On to `COC(=O)C1=C(c2ccc(OC(F)(F)F)cc2)C[C@@H]2CC[C@H]1N2C(=O)NCCOc1ccc(OC)cc1`, for which the cell number change is -21.3%. Besides, under setting [1], the AC50 was 4.61 µM [rising, single point].

Consider `C=CCn1c(O)c(C(CC)=NCCC2=CCCCC2)c(=O)[nH]c1=O`, for which the cell number change stood at 16.2%. Moreover, under setting [1], the AC50 was 6.51 µM [falling, single point].

With `CCCCCn1c(N)c(C(=O)NCCN2CCOCC2)c2nc3ccccc3nc21`, the cell number change was -85.4%. Under setting [2], the AC50 was 16.4 µM [falling, single point]. In addition, the AC50 under setting [1] is 29.1 µM [falling, single point].

Take `CCOP(=O)(OCC)C(NC(=O)c1cccc(C)c1)C(Cl)(Cl)Cl` (stereo not given): the cell number change was -52.8%. Also, under setting [2], the AC50 is 18.4 µM [falling, single point]. Under setting [1], the half-maximal activity concentration (AC50) is 29.1 µM [falling, single point].

Turning to `Cc1ccc(-n2c(O)c(C=Nc3ccccc3N)c(=O)[nH]c2=O)cc1C`, the cell number change is -3.52%. Besides, the AC50 under setting [1] was 29.1 µM [rising, single point].

`CN(C)C(=O)Oc1cccc2c(OC(=O)N(C)C)cccc12`: the cell number change amounted to 4.02%.

Regarding `CCC1(C)CN(S(=O)(=O)OCC(Cl)(Cl)Cl)C(=O)N1` (stereo not given), the cell number change was determined as 29%. In addition, under setting [1], the AC50 was 29.1 µM [rising, single point].

As for `CCn1c(O)c(C(c2ccccn2)c2c(O)n(CC)c(=S)[nH]c2=O)c(=O)[nH]c1=S`, the cell number change amounted to 44.8%. Also, the AC50 under setting [2] was 29.1 µM [rising, single point].

On to `O=C(O)c1ccccc1-c1ccc(C=C2C(=O)N(c3ccccc3)C(=S)N(c3ccccc3)C2=O)o1`, for which the cell number change was 9.49%. Moreover, under setting [1], the AC50 is 3.66 µM [rising, partial curve].

Regarding `O=C(N/N=C/c1c(O)n(-c2ccccc2)c(=O)[nH]c1=O)c1ccncc1`, the AC50 under setting [1] is 29.1 µM [falling, single point].

For the compound `CC(=NC1CCN(Cc2ccccc2)CC1)c1c(O)n(C)c(=O)n(C)c1=O`, the AC50 under setting [1] was 0.103 µM [falling, partial curve, poor fit].

Turning to `Cc1cc(S(=O)(=O)NC(C)C)ccc1OCC(=O)N1CCN(Cc2ccc3c(c2)OCO3)CC1`, the cell number change was -40.9%. For the same compound, the AC50 under setting [2] is 8.2 µM [falling, partial curve]. Further, the AC50 under setting [1] is 13 µM [falling, partial curve].

With `COc1cc2c(cc1C=O)OCO2`, the cell number change turned out to be 33.7%. Also, under setting [2], the AC50 was 16.4 µM [rising, single point]. Also, the AC50 under setting [1] is 23.1 µM [rising, single point].

Turning to `CC1(C)C2CC=C(CN3CCC(O)CC3)C1C2` (stereo not given), the cell number change is -32.3%. Besides, under setting [1], the AC50 is 0.259 µM [falling, full curve].

For `C=CCNC(=S)/N=C/c1c(O)[nH]c(=O)[nH]c1=O`, the cell number change was determined as 128%.

Regarding `CCC(C)N1C(=O)NC(=O)C2(Cc3c(ccc4ccccc34)N(C)C2)C1=O` (stereo not given), the cell number change is 11.9%. Further, the concentration at half-maximal activity (AC50) under setting [2] is 0.0058 µM [rising, full curve, poor fit].

In the case of `C=CCn1c(O)c(C(CC)=Nc2ccccc2NC(C)=O)c(=O)[nH]c1=O`, the cell number change was -15.9%. Also, the AC50 under setting [2] is 0.146 µM [falling, full curve]. For the same compound, under setting [1], the AC50 is 0.461 µM [falling, partial curve].

Consider `CCOC(=O)C1CCCN(c2ccc([N+](=O)[O-])c3nonc23)C1` (stereo not given), for which the cell number change was -59.2%. Besides, under setting [2], the AC50 was 1.03 µM [falling, full curve]. Further, the AC50 under setting [1] was 0.82 µM [falling, full curve, poor fit].

For the compound `Cc1cc(C(=O)OCC(=O)Nc2c(F)cccc2F)c(C)n1C1CC1`, the cell number change was determined as 0.855%. Further, the AC50 under setting [1] was 16.4 µM [rising, partial curve].

In the case of `COC(=O)C1=C(c2ccc(-c3ccccc3)c(F)c2)C[C@@H]2CC[C@H]1N2C(=O)N1CCCCC1`, the cell number change was -34.1%. Under setting [2], the AC50 is 11.6 µM [falling, partial curve]. Besides, under setting [1], the AC50 was 13 µM [falling, partial curve].

Take `O=C1/C(=C/c2cc([N+](=O)[O-])ccc2Cl)N2CCC1CC2`: the cell number change is -19.5%.

With `COCCNC(=O)Cn1cc(C(=O)c2ccccc2F)c2ccccc21`, the cell number change stood at 14.1%. For the same compound, under setting [1], the AC50 was 6.51 µM [rising, single point].

In the case of `CCC(=O)O[C@@H]1[C@@H](OC(C)=O)[C@@]2(O)C(C[C@H](O)C2(C)C)[C@](C)(O)[C@H]2CC[C@@H]3[C@@H](O)[C@]12C[C@@]3(C)O` (stereo not given in full), the cell number change was -29.3%. For the same compound, the half-maximal activity concentration (AC50) under setting [1] is 4.61 µM [falling, full curve].

In the case of `CN(C)CC#CCn1c2ccccc2c2ccccc21`, the cell number change was -3.04%. Also, the AC50 under setting [1] was 20.6 µM [rising, single point].

Regarding `COC(=O)C(O)(c1ccc(N(C)C(=O)COc2ccccc2)cc1)C(F)(F)F` (stereo not given), the cell number change was 14.9%. Besides, the AC50 under setting [1] is 32.6 µM [rising, single point].

With `COc1ccc(CCNCc2sccc2C)cc1`, the cell number change turned out to be 15.5%. Besides, the AC50 under setting [2] was 3.66 µM [rising, partial curve].

As for `COc1ccccc1Oc1c(C)oc2cc(OC(=O)N(C)C)ccc2c1=O`, the cell number change was 20.4%. Further, the AC50 under setting [1] is 14.6 µM [rising, single point].

Regarding `Fc1ccccc1CCNCc1ccccc1`, the cell number change was -35.7%. For the same compound, the half-maximal activity concentration (AC50) under setting [2] was 14.6 µM [falling, partial curve]. In addition, the AC50 under setting [1] is 11.6 µM [falling, partial curve].

`Cc1ccc(C)c(OCC(=O)N2CCN(Cc3ccc4c(c3)OCO4)CC2)c1`: the cell number change was -10.9%. In addition, the AC50 under setting [1] is 13 µM [falling, partial curve].

On to `CN(C)C(=O)Oc1ccc(OC(=O)c2ccccc2)cc1`, for which the cell number change came out at 61.8%. Also, the AC50 under setting [2] was 18.4 µM [rising, single point].

`CCc1nc(N2CCNCC2)c(C#N)c2c1CSC(C)(C)C2`: the cell number change came to 1.12%.

With `COC(=O)CCCNC(=O)CN1CC(c2ccccc2)CC1=O` (stereo not given), the cell number change was -18.9%. Further, the AC50 under setting [2] is 0.651 µM [falling, full curve, poor fit]. In addition, the AC50 under setting [1] was 0.13 µM [falling, full curve, poor fit].

As to `CCCC(=O)OCC[N+](C)(C)C`, the cell number change was -17.6%. Also, the AC50 under setting [1] is 1.3 µM [falling, full curve, poor fit].

For the compound `CCN(CC)S(=O)(=O)c1cccc(N=Nc2c(O)n(CC)c(=S)n(CC)c2=O)c1`, the cell number change was 5.15%. The AC50 under setting [2] was 6.51 µM [rising, single point].

As to `CCN(CC)C(=O)Cn1cc(/C=C2\C(=O)NC(=O)N(c3ccccc3F)C2=O)c2ccccc21`, the cell number change is -19.8%. Further, the AC50 under setting [1] is 14.6 µM [falling, single point].
